# Source: the supplement of paper PMC11732987, “Enantioselective OTUD7B fragment discovery through chemoproteomics screening and high-throughput optimisation” (Communications Chemistry, 2025)
# Chains of the proteins cited; added tags and fusions are not shown. Lines headed by an entry give the natural chain unless they say otherwise; changes in a name come on top. Residues count along the entry.
# UniProt Q9BQ69: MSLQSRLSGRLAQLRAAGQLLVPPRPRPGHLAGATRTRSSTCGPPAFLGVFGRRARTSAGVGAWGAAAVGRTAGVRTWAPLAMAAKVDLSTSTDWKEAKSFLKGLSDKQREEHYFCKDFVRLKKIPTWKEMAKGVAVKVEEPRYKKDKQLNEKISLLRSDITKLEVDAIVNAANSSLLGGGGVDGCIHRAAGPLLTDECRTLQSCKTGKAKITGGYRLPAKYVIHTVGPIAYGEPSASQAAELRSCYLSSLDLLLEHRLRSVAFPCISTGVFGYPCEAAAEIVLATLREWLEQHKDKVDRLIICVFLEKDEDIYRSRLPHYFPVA
# UniProt Q5TCQ9: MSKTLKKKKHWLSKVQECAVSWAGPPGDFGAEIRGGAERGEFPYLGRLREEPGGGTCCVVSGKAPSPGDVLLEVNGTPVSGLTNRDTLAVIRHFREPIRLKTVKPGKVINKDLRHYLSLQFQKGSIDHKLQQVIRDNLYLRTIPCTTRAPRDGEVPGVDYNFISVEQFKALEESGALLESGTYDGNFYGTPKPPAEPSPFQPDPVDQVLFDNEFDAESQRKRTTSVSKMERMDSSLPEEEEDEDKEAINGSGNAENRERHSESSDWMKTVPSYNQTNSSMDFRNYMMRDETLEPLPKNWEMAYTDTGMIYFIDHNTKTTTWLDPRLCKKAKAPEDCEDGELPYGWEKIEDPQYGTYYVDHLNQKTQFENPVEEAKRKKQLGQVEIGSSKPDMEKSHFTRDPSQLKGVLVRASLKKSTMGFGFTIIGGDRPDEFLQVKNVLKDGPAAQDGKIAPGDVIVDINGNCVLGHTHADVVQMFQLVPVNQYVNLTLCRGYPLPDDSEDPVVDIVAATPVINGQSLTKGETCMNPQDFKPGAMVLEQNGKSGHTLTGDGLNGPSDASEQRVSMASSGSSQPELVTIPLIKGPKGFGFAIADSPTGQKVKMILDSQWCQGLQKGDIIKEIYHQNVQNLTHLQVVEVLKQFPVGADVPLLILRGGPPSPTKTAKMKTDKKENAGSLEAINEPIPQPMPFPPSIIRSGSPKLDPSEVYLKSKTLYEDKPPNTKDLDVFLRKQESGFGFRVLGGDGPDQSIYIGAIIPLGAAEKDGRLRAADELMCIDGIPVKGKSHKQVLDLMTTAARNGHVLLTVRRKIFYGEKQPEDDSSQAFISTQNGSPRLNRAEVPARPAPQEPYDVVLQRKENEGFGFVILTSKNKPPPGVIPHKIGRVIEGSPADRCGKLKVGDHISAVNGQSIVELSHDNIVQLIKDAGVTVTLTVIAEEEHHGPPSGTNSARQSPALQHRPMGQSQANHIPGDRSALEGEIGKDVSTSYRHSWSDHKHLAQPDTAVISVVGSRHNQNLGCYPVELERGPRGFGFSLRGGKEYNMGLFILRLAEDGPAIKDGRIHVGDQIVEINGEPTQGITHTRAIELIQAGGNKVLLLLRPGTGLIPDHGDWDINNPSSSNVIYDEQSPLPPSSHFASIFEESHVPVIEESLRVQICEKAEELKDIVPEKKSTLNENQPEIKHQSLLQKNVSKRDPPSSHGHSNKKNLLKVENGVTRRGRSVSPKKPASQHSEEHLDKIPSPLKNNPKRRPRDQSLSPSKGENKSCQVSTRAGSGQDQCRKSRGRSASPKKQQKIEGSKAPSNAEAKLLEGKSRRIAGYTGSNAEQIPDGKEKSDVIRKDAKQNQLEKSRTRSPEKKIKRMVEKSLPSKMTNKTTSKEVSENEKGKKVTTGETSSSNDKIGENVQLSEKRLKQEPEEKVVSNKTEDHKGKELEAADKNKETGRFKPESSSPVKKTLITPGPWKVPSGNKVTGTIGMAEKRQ
# UniProt Q16644, 193-218: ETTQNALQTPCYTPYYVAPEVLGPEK
# UniProt Q9H063: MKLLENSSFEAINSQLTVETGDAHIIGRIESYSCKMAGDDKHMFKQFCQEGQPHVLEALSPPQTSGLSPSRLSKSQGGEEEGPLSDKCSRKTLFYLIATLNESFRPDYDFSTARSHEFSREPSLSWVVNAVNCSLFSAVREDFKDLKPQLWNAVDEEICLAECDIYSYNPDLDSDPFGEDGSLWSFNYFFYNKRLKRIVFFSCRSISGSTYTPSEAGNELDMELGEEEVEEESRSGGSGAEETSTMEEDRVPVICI
# UniProt P33993, 44-71: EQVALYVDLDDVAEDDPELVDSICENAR
# UniProt P49736, whole entry, looked up: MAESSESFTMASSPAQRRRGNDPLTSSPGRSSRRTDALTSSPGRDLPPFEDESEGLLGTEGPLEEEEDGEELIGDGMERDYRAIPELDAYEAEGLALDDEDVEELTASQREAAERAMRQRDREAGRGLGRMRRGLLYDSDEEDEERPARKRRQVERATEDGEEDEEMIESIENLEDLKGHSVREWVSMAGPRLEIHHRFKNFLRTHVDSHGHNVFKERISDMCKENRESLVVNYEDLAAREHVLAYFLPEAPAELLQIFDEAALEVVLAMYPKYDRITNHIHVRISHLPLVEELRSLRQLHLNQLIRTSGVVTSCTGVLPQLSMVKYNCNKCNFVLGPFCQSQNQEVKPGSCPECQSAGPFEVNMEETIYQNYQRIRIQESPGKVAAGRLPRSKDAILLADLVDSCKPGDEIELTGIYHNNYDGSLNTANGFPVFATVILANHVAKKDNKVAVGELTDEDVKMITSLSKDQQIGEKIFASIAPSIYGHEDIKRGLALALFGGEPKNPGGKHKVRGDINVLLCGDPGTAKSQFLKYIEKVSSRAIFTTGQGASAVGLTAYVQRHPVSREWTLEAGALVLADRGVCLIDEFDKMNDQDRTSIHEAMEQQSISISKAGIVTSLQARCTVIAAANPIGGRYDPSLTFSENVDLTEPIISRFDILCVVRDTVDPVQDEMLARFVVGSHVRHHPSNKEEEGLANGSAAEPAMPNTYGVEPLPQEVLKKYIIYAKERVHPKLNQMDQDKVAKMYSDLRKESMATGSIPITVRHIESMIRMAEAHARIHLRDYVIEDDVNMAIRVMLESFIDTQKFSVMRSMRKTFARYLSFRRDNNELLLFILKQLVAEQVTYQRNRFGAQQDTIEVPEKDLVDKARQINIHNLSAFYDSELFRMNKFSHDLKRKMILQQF
# UniProt P33992: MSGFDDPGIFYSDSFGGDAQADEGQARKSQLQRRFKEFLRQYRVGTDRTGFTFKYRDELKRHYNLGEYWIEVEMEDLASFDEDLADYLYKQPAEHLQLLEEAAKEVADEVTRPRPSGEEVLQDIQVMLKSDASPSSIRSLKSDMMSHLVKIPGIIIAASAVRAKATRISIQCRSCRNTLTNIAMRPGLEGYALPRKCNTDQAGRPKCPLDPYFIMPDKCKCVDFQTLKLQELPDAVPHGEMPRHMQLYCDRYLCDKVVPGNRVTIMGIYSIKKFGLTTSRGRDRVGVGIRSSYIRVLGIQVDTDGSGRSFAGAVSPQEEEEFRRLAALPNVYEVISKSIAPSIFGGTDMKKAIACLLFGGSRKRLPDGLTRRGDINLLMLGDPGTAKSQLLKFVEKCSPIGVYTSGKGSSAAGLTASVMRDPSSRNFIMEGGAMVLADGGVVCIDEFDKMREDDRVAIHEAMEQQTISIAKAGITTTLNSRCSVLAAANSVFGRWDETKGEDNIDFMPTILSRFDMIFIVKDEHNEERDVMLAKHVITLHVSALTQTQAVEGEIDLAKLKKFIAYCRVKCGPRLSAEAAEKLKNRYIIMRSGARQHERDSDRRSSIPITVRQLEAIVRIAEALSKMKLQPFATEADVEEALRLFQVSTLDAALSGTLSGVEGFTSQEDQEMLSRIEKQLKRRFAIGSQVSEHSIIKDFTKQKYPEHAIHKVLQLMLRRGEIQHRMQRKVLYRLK
# UniProt O60318, 420-440: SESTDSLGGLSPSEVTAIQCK
# UniProt O95382: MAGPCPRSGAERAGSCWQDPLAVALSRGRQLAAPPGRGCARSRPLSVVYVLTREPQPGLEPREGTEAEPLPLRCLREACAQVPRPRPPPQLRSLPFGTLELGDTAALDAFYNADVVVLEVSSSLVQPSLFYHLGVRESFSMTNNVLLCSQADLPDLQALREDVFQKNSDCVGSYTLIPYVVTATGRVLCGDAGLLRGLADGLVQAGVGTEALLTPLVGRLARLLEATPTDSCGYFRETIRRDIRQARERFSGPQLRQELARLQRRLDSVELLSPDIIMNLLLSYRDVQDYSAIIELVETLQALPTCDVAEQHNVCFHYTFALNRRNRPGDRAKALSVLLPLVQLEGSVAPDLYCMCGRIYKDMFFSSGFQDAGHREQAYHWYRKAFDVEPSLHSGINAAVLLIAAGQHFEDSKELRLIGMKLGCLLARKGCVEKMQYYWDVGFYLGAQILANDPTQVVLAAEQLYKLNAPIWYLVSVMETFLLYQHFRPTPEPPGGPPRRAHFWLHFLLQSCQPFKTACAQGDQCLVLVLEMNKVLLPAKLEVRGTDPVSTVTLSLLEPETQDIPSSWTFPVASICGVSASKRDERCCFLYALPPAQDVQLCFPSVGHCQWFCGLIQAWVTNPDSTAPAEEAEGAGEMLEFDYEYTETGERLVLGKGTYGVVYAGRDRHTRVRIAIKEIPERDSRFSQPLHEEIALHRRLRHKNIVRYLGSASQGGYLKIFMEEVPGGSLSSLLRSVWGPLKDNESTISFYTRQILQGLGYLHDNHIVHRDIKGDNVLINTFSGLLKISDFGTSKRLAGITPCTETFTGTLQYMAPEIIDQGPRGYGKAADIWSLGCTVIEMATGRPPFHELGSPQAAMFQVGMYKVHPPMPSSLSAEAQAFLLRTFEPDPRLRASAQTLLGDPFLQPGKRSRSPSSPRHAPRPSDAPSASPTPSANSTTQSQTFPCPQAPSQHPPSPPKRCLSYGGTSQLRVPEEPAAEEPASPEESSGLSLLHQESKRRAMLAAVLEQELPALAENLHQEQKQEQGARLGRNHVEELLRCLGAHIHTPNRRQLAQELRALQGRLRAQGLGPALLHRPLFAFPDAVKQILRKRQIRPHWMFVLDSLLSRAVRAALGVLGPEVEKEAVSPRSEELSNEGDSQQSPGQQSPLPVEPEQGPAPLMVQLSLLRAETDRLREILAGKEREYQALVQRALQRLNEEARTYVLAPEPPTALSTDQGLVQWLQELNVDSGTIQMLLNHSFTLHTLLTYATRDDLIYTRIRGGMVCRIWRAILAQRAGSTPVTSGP
# UniProt Q32MZ4: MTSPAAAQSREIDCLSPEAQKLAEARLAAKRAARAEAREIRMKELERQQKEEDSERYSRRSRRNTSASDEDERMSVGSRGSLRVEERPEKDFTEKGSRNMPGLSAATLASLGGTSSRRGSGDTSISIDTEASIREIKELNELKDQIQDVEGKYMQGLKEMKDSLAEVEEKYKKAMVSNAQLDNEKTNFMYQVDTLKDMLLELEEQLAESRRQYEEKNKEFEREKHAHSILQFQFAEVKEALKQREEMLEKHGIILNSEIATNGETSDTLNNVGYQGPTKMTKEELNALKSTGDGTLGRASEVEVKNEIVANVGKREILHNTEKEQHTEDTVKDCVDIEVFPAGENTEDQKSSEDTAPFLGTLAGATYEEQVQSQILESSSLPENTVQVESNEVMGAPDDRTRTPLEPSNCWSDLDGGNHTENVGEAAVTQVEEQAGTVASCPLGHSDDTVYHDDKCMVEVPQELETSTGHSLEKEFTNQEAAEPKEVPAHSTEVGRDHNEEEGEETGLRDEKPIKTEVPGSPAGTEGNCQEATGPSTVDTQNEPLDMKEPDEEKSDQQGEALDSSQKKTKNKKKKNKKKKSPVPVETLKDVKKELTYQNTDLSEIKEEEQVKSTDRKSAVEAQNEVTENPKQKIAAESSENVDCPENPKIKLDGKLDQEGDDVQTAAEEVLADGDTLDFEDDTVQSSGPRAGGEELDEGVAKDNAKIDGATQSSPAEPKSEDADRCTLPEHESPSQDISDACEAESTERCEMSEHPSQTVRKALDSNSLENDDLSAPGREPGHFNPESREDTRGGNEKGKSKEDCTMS
# UniProt Q9Y6D9: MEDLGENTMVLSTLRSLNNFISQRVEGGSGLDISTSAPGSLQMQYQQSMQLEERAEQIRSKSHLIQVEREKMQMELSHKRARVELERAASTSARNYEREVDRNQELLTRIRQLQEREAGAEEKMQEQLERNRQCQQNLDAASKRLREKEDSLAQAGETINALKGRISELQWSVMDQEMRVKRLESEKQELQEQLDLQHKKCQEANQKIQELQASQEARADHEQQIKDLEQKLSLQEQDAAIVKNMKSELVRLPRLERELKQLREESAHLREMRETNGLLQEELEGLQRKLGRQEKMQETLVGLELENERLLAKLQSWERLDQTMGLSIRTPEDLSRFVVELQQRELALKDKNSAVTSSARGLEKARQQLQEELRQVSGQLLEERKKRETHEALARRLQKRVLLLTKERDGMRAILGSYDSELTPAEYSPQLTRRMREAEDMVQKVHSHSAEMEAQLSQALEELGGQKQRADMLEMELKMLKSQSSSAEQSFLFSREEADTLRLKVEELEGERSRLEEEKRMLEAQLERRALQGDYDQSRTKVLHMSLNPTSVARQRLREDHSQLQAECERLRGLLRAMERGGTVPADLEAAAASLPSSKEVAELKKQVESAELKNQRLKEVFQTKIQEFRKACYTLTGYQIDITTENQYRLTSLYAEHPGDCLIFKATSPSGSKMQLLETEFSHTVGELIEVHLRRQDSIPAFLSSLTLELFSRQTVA
# This is one part of the list. The data scatter; read single values as rough.
# Key:
# [1] = compound: ClCC(=O)N[C@@H]1CCCc2ccccc12; test: log2 mean competition ratio of IA-DTB cysteine labelling (DMSO/compound) (log2 ratio); higher = stronger cysteine engagement by compound; conditions: treatment time: 4 h, cell line lysate: HEK293T
# Description: (§1)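 IA-DTB competitive cysteine chemoproteomics in HEK293T RIPA lysate. Lysates were treated with compound 29 or 30 at 50 or 200 µM for 4 h, then IA-DTB (500 µM, 1 h), trypsin-digested, NeutrAvidin-enriched and analysed by diaPASEF. Competition ratio = intensity DMSO / intensity compound (n=4 treated, n=64 DMSO); binding: mean log2 CR ≥ 1 and p ≤ 0.05 plus QC filters. Target is the cysteine site.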
# [2] = compound: ClCC(=O)N[C@H]1CCCc2ccccc12; test: as above; conditions: treatment time: 4 h, cell line lysate: HEK293T
# Description: as §1
Target,log2 mean competition ratio ([1]; 50 µM),log2 mean competition ratio ([1]; 200 µM),log2 mean competition ratio ([2]; 50 µM),log2 mean competition ratio ([2]; 200 µM)
MACROD1 C199 (UniProt Q9BQ69),-0.0189,0.0943,,
MAU2 C165 (UniProt Q9Y6X3),0.606,-0.309,-0.0233,-0.324
MAP3K1 C1012 (UniProt Q13233),-0.0226,0.386,0.39,0.366
MCM10 C369 (UniProt Q7L590),-0.364,0.235,-0.704,0.136
LUZP1 C1072 (UniProt Q86V48),-0.189,0.306,-0.088,0.134
MAGI3 C1266 (UniProt Q5TCQ9),0.0341,0.063,0.47,0.203
MAPKAPK3 C203 (UniProt Q16644),-0.123,-0.12,0.478,-0.29
MAPK3 C178,0.393,0.218,0.251,0.17
MAPKAPK3 C379 (UniProt Q16644),-0.253,0.0409,0.0979,0.0411
LUC7L2 C348 (UniProt Q9Y383),0.0624,0.0522,0.0481,0.0924
MAPK13 C162,-0.123,-0.000518,-0.453,-0.223
MAF1 C34 (UniProt Q9H063),-0.0744,0.0607,0.232,-0.0992
MAP7D2 C163,0.229,0.192,0.263,-0.00812
MAF C305,0.268,0.43,0.198,0.424
MCM7 C378 (UniProt P33993),-0.123,-0.188,-0.152,-0.129
MAP7D1 C361 (UniProt Q3KQU3),0.241,-0.145,0.603,-0.00927
MAP2K6 C38 (UniProt P52564),0.0773,-0.0931,-0.134,-0.119
MAP7D2 C574,-0.0371,-0.174,0.0703,0.048
MCM2 C584 (UniProt P49736),-0.174,-0.305,-0.38,-0.204
MCM5 C397 (UniProt P33992),0.416,0.0813,0.0553,0.063
LRRC8C C774,0.25,0.0616,0.144,0.0185
MCM3AP C1839 (UniProt O60318),-0.164,0.124,-0.124,0.0856

# Reformatted bar-delimited: entries from further up.
Target | log2 mean competition ratio ([1]; 50 µM) | log2 mean competition ratio ([1]; 200 µM) | log2 mean competition ratio ([2]; 50 µM) | log2 mean competition ratio ([2]; 200 µM)
MAPK13 C162 | -0.123 | -0.000518 | -0.453 | -0.223
MAF1 C34 (UniProt Q9H063) | -0.0744 | 0.0607 | 0.232 | -0.0992
MAP7D2 C163 | 0.229 | 0.192 | 0.263 | -0.00812
MAF C305 | 0.268 | 0.43 | 0.198 | 0.424
MCM7 C378 (UniProt P33993) | -0.123 | -0.188 | -0.152 | -0.129
MAP7D1 C361 (UniProt Q3KQU3) | 0.241 | -0.145 | 0.603 | -0.00927
MAP2K6 C38 (UniProt P52564) | 0.0773 | -0.0931 | -0.134 | -0.119
MAP7D2 C574 | -0.0371 | -0.174 | 0.0703 | 0.048
MCM2 C584 (UniProt P49736) | -0.174 | -0.305 | -0.38 | -0.204
MCM5 C397 (UniProt P33992) | 0.416 | 0.0813 | 0.0553 | 0.063

# Additional records follow:

Target,log2 mean competition ratio ([1]; 50 µM),log2 mean competition ratio ([1]; 200 µM),log2 mean competition ratio ([2]; 50 µM),log2 mean competition ratio ([2]; 200 µM)
LYN C203 (UniProt P07948),0.245,0.203,-0.0692,0.128
MAP4K3 C720 (UniProt Q8IVH8),-0.0868,-0.0204,-0.46,0.143
MBNL3 C44,-0.159,-0.52,-0.0227,-0.15
MAP3K4 C1322 (UniProt Q9Y6R4),-0.0584,-0.0351,-0.585,0.00489
MAP3K6 C232 (UniProt O95382),0.299,0.198,0.124,0.42
LRRC8C C571,0.0294,0.00744,-0.0053,-0.0183
MANF C151 (UniProt P55145),-0.069,-0.00874,-0.167,0.189
MCM3AP C981 (UniProt O60318),-0.0367,-0.00901,0.19,-0.172
LRRFIP1 C456 (UniProt Q32MZ4),0.0611,-0.041,0.0539,-0.167
MAP3K6 C962 (UniProt O95382),0.424,0.292,-0.185,0.37
MAD1L1 C662 (UniProt Q9Y6D9),0.204,0.261,-0.261,0.113
MCM7 C67 (UniProt P33993),-0.293,0.208,0.0267,-0.231
LTBP3 C289,-0.0514,0.146,-0.0394,-0.0854
MASTL C271 (UniProt Q96GX5),-0.0637,-0.00374,-0.22,0.35
MACF1 C887,-0.341,-0.118,0.248,0.0193
LRR1 C114 (UniProt Q96L50),0.0262,0.0376,-0.262,-0.074
LZTS2 C444 (UniProt Q9BRK4),0.0905,-0.113,-0.513,-0.0233
MAP3K6 C189 (UniProt O95382),0.128,0.211,-0.308,0.103
MACF1 C666,0.108,-0.138,0.402,-0.182
MAK16 C39 (UniProt Q9BXY0),0.159,0.145,0.0186,0.088
MARS1 C309,-0.322,-0.0812,0.658,0.0559
MCM3AP C439 (UniProt O60318),-0.21,0.307,-0.0366,0.332
